Results: patent publication US20020128295A1, “Use of pyridoxamine for the treatment and inhibition of obesity-related complications” (priority 2000, published 2002)

Assay: Weight gain in Zucker obese (fa/fa) rats
Format: in vivo, rat
Conditions: week 32, 2 g PM/L in drinking water

Cc1ncc(CO)c(CN)c1O [PM, Pyridoxamine]
Body weight: 746 ± 60 g
